According to the supplement of paper PMC10735217:
Structures can show the parent of a compound that is named as a salt. The list shows a part of the results. Single values are uncertain here, since repeats match poorly.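 The human kidney-derived cells carry a stably integrated construct of eight TEAD-binding elements driving luciferase, read by luminescence in a drug-repurposing library screen. A compound counts as a hit when its signal is more than five robust Z scores above the plate mean.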

Test system: HEK293A TEAD-LUC reporter
Assay: TEAD-luciferase reporter activity (YAP activation), robust Z score vs plate; higher = stronger YAP/TEAD activation
Details: 24 h

SMILES: CCN(CC)CCNc1ccc(C)c2sc3ccccc3c(=O)c12
- TEAD-luciferase reporter activity (compound concentration: 200 nM): inactive: -0.95
- TEAD-luciferase reporter activity (compound concentration: 2 uM): inactive: -2.49
- TEAD-luciferase reporter activity (compound concentration: 10 uM): inactive: 2.58

SMILES: CCCCCCCCCCCCCCCCCCN(C)C
- TEAD-luciferase reporter activity (compound concentration: 200 nM): inactive: -1.02
- TEAD-luciferase reporter activity (compound concentration: 2 uM): inactive: 0.379
- TEAD-luciferase reporter activity (compound concentration: 10 uM): inactive: -0.0974

SMILES: CC(C)C[C@H](NC(=O)N1CCCCCC1)C(=O)N[C@H](Cc1cn(C)c2ccccc12)C(=O)N[C@H](Cc1ccccn1)C(=O)O
- TEAD-luciferase reporter activity (compound concentration: 200 nM): inactive: -0.309
- TEAD-luciferase reporter activity (compound concentration: 2 uM): inactive: 1.39
- TEAD-luciferase reporter activity (compound concentration: 10 uM): inactive: 0.511

SMILES: C/C=C/C[C@@H](C)C(=O)[C@H]1C(=O)N[C@@H](C(C)C)C(=O)N(C)CC(=O)N(C)[C@@H](CC(C)C)C(=O)N[C@@H](C(C)C)C(=O)N(C)[C@@H](CC(C)C)C(=O)N[C@@H](C)C(=O)N[C@H](C)C(=O)N(C)[C@@H](CC(C)C)C(=O)N(C)[C@@H](CC(C)C)C(=O)N(C)[C@@H](C(C)C)C(=O)N1C [Valspodar]
- TEAD-luciferase reporter activity (compound concentration: 200 nM): inactive: -2.14
- TEAD-luciferase reporter activity (compound concentration: 2 uM): inactive: -0.563
- TEAD-luciferase reporter activity (compound concentration: 10 uM): inactive: -0.707

SMILES: CCCCc1nc(Cl)c(CO)n1Cc1ccc(-c2ccccc2C#N)cc1
- TEAD-luciferase reporter activity (compound concentration: 200 nM): inactive: -0.566
- TEAD-luciferase reporter activity (compound concentration: 2 uM): inactive: -1.15
- TEAD-luciferase reporter activity (compound concentration: 10 uM): inactive: -0.821

SMILES: Cc1[nH]cnc1CC1CCc2c(C)c3ccccc3n2C1=O (centres undefined)
- TEAD-luciferase reporter activity (compound concentration: 200 nM): inactive: 0.614
- TEAD-luciferase reporter activity (compound concentration: 2 uM): inactive: -0.22
- TEAD-luciferase reporter activity (compound concentration: 10 uM): inactive: 0.241

SMILES: N[C@@H]1CCCC[C@H]1N (relative stereo) [trans-1,2-Diaminocyclohexane]
- TEAD-luciferase reporter activity (compound concentration: 200 nM): inactive: -0.286
- TEAD-luciferase reporter activity (compound concentration: 2 uM): inactive: -1.53
- TEAD-luciferase reporter activity (compound concentration: 10 uM): inactive: -0.894

SMILES: C1CCc2c(c3c(N4CCCC4)nc(N4CCCC4)nc3n2CCN2CCOCC2)C1
- TEAD-luciferase reporter activity (compound concentration: 200 nM): inactive: -0.139
- TEAD-luciferase reporter activity (compound concentration: 2 uM): inactive: -1.43
- TEAD-luciferase reporter activity (compound concentration: 10 uM): inactive: 0.912

SMILES: O=C(c1ccccn1)c1cnn2c(-c3ccncc3)ccnc12 [ocinaplon controlled-release]
- TEAD-luciferase reporter activity (compound concentration: 200 nM): inactive: 0.632
- TEAD-luciferase reporter activity (compound concentration: 2 uM): inactive: -1.49
- TEAD-luciferase reporter activity (compound concentration: 10 uM): inactive: -1.46

SMILES: O=C(Nc1ccc([N+](=O)[O-])cc1O)Nc1ccccc1Br
- TEAD-luciferase reporter activity (compound concentration: 200 nM): inactive: 3.81
- TEAD-luciferase reporter activity (compound concentration: 2 uM): inactive: 1.86
- TEAD-luciferase reporter activity (compound concentration: 10 uM): inactive: 1.91

SMILES: Cc1cc(O)c(S(=O)(=O)O)cc1Cc1cc(S(=O)(=O)O)c(O)cc1C [Dicresulene Hydrate]
- TEAD-luciferase reporter activity (compound concentration: 200 nM): inactive: -0.00772
- TEAD-luciferase reporter activity (compound concentration: 2 uM): inactive: 0.69
- TEAD-luciferase reporter activity (compound concentration: 10 uM): inactive: 0.395

SMILES: Cc1c(N2C[C@@H]3CCCN[C@@H]3C2)c(F)cn2c(=O)c(C(=O)O)cc(C3CC3)c12
- TEAD-luciferase reporter activity (compound concentration: 200 nM): inactive: -0.179
- TEAD-luciferase reporter activity (compound concentration: 2 uM): inactive: 0.21
- TEAD-luciferase reporter activity (compound concentration: 10 uM): inactive: -1.25

SMILES: COc1cc(C)c(S(C)=O)cc1O (centres undefined)
- TEAD-luciferase reporter activity (compound concentration: 200 nM): inactive: -1.8
- TEAD-luciferase reporter activity (compound concentration: 2 uM): inactive: -1.58
- TEAD-luciferase reporter activity (compound concentration: 10 uM): inactive: -1.51

SMILES: Cc1ccnc2c1NC(=O)c1cccnc1N2C1CC1 [nevirapine]
- TEAD-luciferase reporter activity (compound concentration: 2 uM): inactive: 0.675

SMILES: Cc1ccnc2c1NC(=O)c1cccnc1N2C1CC1 [Viramune]
- TEAD-luciferase reporter activity (compound concentration: 200 nM): inactive: -0.515
- TEAD-luciferase reporter activity (compound concentration: 10 uM): inactive: 0.109

SMILES: C[C@@H]1CCO[C@H]2Cn3cc(C(=O)NCc4ccc(F)cc4F)c(=O)c(O)c3C(=O)N12 [Dolutegravir sodium]
- TEAD-luciferase reporter activity (compound concentration: 200 nM): inactive: -0.723
- TEAD-luciferase reporter activity (compound concentration: 2 uM): inactive: -1.06
- TEAD-luciferase reporter activity (compound concentration: 10 uM): inactive: 1.22

SMILES: CN1CCN(C(c2ccccc2)c2ccc(Cl)cc2)CC1 (centres undefined)
- TEAD-luciferase reporter activity (compound concentration: 200 nM): inactive: -0.538
- TEAD-luciferase reporter activity (compound concentration: 10 uM): inactive: -1.09

SMILES: CN1CCN(C(c2ccccc2)c2ccc(Cl)cc2)CC1 (centres undefined) [Chlorcyclizine hydrochloride]
- TEAD-luciferase reporter activity (compound concentration: 2 uM): inactive: -0.506

SMILES: O=C(O)CC(S)C(=O)O (centres undefined) [Thiomalic acid]
- TEAD-luciferase reporter activity (compound concentration: 2 uM): inactive: -1.6

SMILES: O=C(O)CC(S)C(=O)O (centres undefined)
- TEAD-luciferase reporter activity (compound concentration: 200 nM): inactive: 0.784
- TEAD-luciferase reporter activity (compound concentration: 10 uM): inactive: -0.673

SMILES: O=C(c1ccccc1)N1CCC(N2Cc3ccccc3C2=O)CC1
- TEAD-luciferase reporter activity (compound concentration: 200 nM): active: 5.72
- TEAD-luciferase reporter activity (compound concentration: 10 uM): inactive: 2.79

SMILES: CCCN(c1ccncc1)n1ccc2ccccc21 [besipirdine]
- TEAD-luciferase reporter activity (compound concentration: 200 nM): inactive: -0.873
- TEAD-luciferase reporter activity (compound concentration: 2 uM): inactive: -0.0526
- TEAD-luciferase reporter activity (compound concentration: 10 uM): inactive: 2.56

SMILES: C[C@@H](NC(=O)[C@@H]1C[C@@]1(C)c1ccc(C(F)(F)F)cc1)c1cc(F)c(NS(C)(=O)=O)c(F)c1
- TEAD-luciferase reporter activity (compound concentration: 200 nM): inactive: -0.853
- TEAD-luciferase reporter activity (compound concentration: 2 uM): inactive: 0.283
- TEAD-luciferase reporter activity (compound concentration: 10 uM): inactive: 0.0357

SMILES: c1ccc(C(CC2=NCCN2)c2ccccn2)cc1 (centres undefined)
- TEAD-luciferase reporter activity (compound concentration: 200 nM): inactive: 0.104
- TEAD-luciferase reporter activity (compound concentration: 2 uM): inactive: -0.0496
- TEAD-luciferase reporter activity (compound concentration: 10 uM): inactive: -0.499

SMILES: N=C(N)NCCC[C@@H](NC(=O)[C@@H]1CCCN1C(=O)[C@@H]1CSSCCC(=O)N[C@@H](Cc2ccc(O)cc2)C(=O)N[C@@H](Cc2ccccc2)C(=O)N[C@@H](CCC(N)=O)C(=O)N[C@@H](CC(N)=O)C(=O)N1)C(=O)NCC(N)=O [desmopressin]
- TEAD-luciferase reporter activity (compound concentration: 200 nM): inactive: -3.23
- TEAD-luciferase reporter activity (compound concentration: 2 uM): inactive: -0.0199
- TEAD-luciferase reporter activity (compound concentration: 10 uM): inactive: -2.58

SMILES: O=C(Oc1ccccc1C(=O)O)c1cccs1 [Tenosal]
- TEAD-luciferase reporter activity (compound concentration: 200 nM): inactive: 0.0717
- TEAD-luciferase reporter activity (compound concentration: 2 uM): inactive: 0.316
- TEAD-luciferase reporter activity (compound concentration: 10 uM): inactive: -0.761

SMILES: O=C(O)c1cn(C2CC2)c2cc(N3CCNCC3)c(F)cc2c1=O [Suroquin]
- TEAD-luciferase reporter activity (compound concentration: 2 uM): inactive: -2.12

SMILES: O=C(O)c1cn(C2CC2)c2cc(N3CCNCC3)c(F)cc2c1=O
- TEAD-luciferase reporter activity (compound concentration: 200 nM): inactive: -0.135
- TEAD-luciferase reporter activity (compound concentration: 10 uM): inactive: 1.99

SMILES: CCCCCCCCCCCCCC[C@@H](O)[C@@H](O)[C@@H](N)CO [Phytosphingosine hydrochloride]
- TEAD-luciferase reporter activity (compound concentration: 2 uM): inactive: -1.83

SMILES: CCCCCCCCCCCCCC[C@@H](O)[C@@H](O)[C@@H](N)CO
- TEAD-luciferase reporter activity (compound concentration: 200 nM): inactive: -0.861
- TEAD-luciferase reporter activity (compound concentration: 10 uM): inactive: 0.936
